Experimental findings from patent publication US20170044236A1 are described below.

Protein sequences, listed by entry. Tags and fused reporters are not part of them. Lines headed by an entry give the natural chain unless they say otherwise; changes in a name come on top.
UniProt P06756: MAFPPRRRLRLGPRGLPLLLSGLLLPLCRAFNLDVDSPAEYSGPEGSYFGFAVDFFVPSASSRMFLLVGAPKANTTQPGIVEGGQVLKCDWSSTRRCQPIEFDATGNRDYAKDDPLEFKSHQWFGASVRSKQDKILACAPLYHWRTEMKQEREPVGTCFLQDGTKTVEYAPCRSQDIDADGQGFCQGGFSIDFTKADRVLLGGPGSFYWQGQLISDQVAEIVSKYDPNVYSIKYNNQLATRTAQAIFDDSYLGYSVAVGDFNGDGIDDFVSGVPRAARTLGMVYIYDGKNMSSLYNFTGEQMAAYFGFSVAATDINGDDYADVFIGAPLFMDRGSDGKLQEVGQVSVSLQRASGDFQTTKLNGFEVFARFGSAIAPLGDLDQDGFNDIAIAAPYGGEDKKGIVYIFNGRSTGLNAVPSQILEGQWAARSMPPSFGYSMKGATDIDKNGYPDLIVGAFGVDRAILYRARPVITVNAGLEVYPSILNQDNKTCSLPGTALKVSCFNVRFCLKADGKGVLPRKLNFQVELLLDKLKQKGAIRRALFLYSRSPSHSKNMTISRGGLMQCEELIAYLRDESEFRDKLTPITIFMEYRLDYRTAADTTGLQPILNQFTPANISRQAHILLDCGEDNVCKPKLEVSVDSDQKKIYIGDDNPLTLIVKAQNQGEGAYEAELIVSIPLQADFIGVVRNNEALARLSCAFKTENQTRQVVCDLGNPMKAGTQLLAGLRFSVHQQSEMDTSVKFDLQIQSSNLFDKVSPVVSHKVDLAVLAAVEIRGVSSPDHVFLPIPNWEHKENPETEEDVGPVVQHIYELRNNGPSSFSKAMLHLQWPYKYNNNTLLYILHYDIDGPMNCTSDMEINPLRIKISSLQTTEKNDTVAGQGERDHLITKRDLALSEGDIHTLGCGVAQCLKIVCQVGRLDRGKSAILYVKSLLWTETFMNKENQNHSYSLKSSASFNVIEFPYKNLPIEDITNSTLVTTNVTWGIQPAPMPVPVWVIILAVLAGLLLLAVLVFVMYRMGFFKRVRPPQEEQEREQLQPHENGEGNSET

For this assay, the target named is wild-type integrin αVβ3 on cells (K562-αVβ3, M21, HEK293T) (human) (UniProt P06756). Nature of the assay: flow cytometry on K562-αVβ3, Fc fusion in culture supernatant, anti-Fc detection, Ca2+/Mg2+.

No constants are given. Whether binding was seen depends on the method and setting. Some binding calls cover weakened binding; strength is not graded here. Sequences can lack the tags named with a protein.

For the molecule GCPRPRGDNWPLTCSQDSDCLAGCVCGPNGFCG (Fc fusion, not shown: a dimerising Fc or GST; small tags and cut ends, cystine-knot disulfide bonds (pairing not given)) [knottin 2.5F (P/W)-Fc], the binding entry was “binds”.
